Drawing on doi:10.1101/2022.10.04.510902 (bioRxiv, 2022), this text covers binding for six molecules.

Sequences of proteins named here, by UniProt entry; tags and fusion partners are left off.
UniProt O54943: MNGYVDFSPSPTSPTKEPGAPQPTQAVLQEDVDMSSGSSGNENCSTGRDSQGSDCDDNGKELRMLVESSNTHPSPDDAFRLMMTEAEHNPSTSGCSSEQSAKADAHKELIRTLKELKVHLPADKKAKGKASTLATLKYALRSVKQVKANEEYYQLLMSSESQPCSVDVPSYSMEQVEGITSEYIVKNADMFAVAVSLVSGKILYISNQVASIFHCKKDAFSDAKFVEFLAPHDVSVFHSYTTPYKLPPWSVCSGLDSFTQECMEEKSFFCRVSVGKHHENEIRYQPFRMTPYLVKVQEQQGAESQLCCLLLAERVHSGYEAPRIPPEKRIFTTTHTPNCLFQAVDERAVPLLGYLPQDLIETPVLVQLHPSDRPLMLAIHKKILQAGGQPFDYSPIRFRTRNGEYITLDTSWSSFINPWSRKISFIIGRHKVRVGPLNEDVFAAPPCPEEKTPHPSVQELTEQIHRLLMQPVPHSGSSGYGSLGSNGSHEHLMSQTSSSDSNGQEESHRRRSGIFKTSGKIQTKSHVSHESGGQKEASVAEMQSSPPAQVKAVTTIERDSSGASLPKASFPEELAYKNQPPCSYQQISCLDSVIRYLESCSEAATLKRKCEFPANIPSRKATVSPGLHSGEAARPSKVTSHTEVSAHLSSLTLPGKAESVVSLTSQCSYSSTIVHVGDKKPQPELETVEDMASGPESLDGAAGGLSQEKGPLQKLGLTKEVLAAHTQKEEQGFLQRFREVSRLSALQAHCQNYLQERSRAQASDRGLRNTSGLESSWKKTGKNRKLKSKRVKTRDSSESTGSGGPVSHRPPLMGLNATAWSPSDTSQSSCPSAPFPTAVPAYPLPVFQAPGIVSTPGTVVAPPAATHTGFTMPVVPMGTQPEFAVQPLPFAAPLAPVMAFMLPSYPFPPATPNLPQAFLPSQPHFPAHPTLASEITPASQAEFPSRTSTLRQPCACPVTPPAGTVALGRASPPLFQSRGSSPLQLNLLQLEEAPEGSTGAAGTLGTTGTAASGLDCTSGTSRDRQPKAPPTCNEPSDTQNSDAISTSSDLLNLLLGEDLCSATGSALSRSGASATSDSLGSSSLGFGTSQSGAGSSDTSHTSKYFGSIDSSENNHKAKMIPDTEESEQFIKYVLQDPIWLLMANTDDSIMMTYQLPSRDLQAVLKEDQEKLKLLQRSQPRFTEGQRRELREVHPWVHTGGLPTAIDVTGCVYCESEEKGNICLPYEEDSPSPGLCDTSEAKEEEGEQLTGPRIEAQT

These are yes or no findings as the source states them, for the method shown. For part of these data: Binding seen in cells or lysates may run through a third protein. Some entries that bind do so weakly or less than the wild type. Where a sequence is shown, tags or fusion partners need not be part of it.

Experiment [1] has as its target T1, BMAL2 TAD, residues 540-579 (mouse) (UniProt Q2VPD4).
T1 sequence: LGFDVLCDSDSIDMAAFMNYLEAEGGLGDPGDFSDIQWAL
Briefly: ITC. (In ITC the heat of successive injections is recorded.)

For experiment [2], the target named is Full-length mouse His-PERIOD2-flag (mouse, UniProt O54943 1-1257). Description: pull-down.
For experiment [3], the target named is T2, CHRONO-flag, full length (human) (UniProt Q8N365).
T2 sequence: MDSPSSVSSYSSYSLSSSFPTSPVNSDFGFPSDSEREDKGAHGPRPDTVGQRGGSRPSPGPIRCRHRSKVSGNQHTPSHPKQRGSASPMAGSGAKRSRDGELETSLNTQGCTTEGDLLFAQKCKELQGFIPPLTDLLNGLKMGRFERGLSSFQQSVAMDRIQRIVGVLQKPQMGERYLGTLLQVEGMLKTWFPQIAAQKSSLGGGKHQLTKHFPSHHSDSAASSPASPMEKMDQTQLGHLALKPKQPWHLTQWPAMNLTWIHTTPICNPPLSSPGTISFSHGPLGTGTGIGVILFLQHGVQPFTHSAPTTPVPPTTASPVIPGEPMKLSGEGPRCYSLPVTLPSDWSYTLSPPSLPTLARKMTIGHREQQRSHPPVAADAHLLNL
Description: co-IP.

B1: His-CHRONO minimal repressive domain (MRD) (domain or fragment, UniProt Q8N365 101-245)
chain: ELETSLNTQGCTTEGDLLFAQKCKELQGFIPPLTDLLNGLKMGRFERGLSSFQQSVAMDRIQRIVGVLQKPQMGERYLGTLLQVEGMLKTWFPQIAAQKSSLGGGKHQLTKHFPSHHSDSAASSPASPMEKMDQTQLGHLALKPK
As to B1, the binding result in experiment [1] is “binds weakly”.

B2: CHRONO minimal repressive domain (MRD), tag form not stated (domain or fragment, UniProt Q8N365 101-245)
chain: ELETSLNTQGCTTEGDLLFAQKCKELQGFIPPLTDLLNGLKMGRFERGLSSFQQSVAMDRIQRIVGVLQKPQMGERYLGTLLQVEGMLKTWFPQIAAQKSSLGGGKHQLTKHFPSHHSDSAASSPASPMEKMDQTQLGHLALKPK
In the case of B2, the binding entry in experiment [2] is “no binding”.

B3: PER2 1-763 (domain or fragment, UniProt O15055 1-763)
chain: MNGYAEFPPSPSNPTKEPVEPQPSQVPLQEDVDMSSGSSGHETNENCSTGRDSQGSDCDDSGKELGMLVEPPDARQSPDTFSLMMAKSEHNPSTSGCSSDQSSKVDTHKELIKTLKELKVHLPADKKAKGKASTLATLKYALRSVKQVKANEEYYQLLMSSEGHPCGADVPSYTVEEMESVTSEHIVKNADMFAVAVSLVSGKILYISDQVASIFHCKRDAFSDAKFVEFLAPHDVGVFHSFTSPYKLPLWSMCSGADSFTQECMEEKSFFCRVSVRKSHENEIRYHPFRMTPYLVKVRDQQGAESQLCCLLLAERVHSGYEAPRIPPEKRIFTTTHTPNCLFQDVDERAVPLLGYLPQDLIETPVLVQLHPSDRPLMLAIHKKILQSGGQPFDYSPIRFRARNGEYITLDTSWSSFINPWSRKISFIIGRHKVRVGPLNEDVFAAHPCTEEKALHPSIQELTEQIHRLLLQPVPHSGSSGYGSLGSNGSHEHLMSQTSSSDSNGHEDSRRRRAEICKNGNKTKNRSHYSHESGEQKKKSVTEMQTNPPAEKKAVPAMEKDSLGVSFPEELACKNQPTCSYQQISCLDSVIRYLESCNEAATLKRKCEFPANVPALRSSDKRKATVSPGPHAGEAEPPSRVNSRTGVGTHLTSLALPGKAESVASLTSQCSYSSTIVHVGDKKPQPELEMVEDAASGPESLDCLAGPALACGLSQEKEPFKKLGLTKEVLAAHTQKEEQSFLQKFKEIRKLSIFQSHCHYYLQ
B3: the binding result in experiment [3] is on record as “binds”.

B4: PER2 1-720 (domain or fragment, UniProt O15055 1-720)
chain: MNGYAEFPPSPSNPTKEPVEPQPSQVPLQEDVDMSSGSSGHETNENCSTGRDSQGSDCDDSGKELGMLVEPPDARQSPDTFSLMMAKSEHNPSTSGCSSDQSSKVDTHKELIKTLKELKVHLPADKKAKGKASTLATLKYALRSVKQVKANEEYYQLLMSSEGHPCGADVPSYTVEEMESVTSEHIVKNADMFAVAVSLVSGKILYISDQVASIFHCKRDAFSDAKFVEFLAPHDVGVFHSFTSPYKLPLWSMCSGADSFTQECMEEKSFFCRVSVRKSHENEIRYHPFRMTPYLVKVRDQQGAESQLCCLLLAERVHSGYEAPRIPPEKRIFTTTHTPNCLFQDVDERAVPLLGYLPQDLIETPVLVQLHPSDRPLMLAIHKKILQSGGQPFDYSPIRFRARNGEYITLDTSWSSFINPWSRKISFIIGRHKVRVGPLNEDVFAAHPCTEEKALHPSIQELTEQIHRLLLQPVPHSGSSGYGSLGSNGSHEHLMSQTSSSDSNGHEDSRRRRAEICKNGNKTKNRSHYSHESGEQKKKSVTEMQTNPPAEKKAVPAMEKDSLGVSFPEELACKNQPTCSYQQISCLDSVIRYLESCNEAATLKRKCEFPANVPALRSSDKRKATVSPGPHAGEAEPPSRVNSRTGVGTHLTSLALPGKAESVASLTSQCSYSSTIVHVGDKKPQPELEMVEDAASGPESLDCLAGPALACGLSQEKEPF
In the case of B4, in experiment [3], the binding result is reported as “no binding”.

B5: PER2 1-569 (domain or fragment, UniProt O15055 1-569)
chain: MNGYAEFPPSPSNPTKEPVEPQPSQVPLQEDVDMSSGSSGHETNENCSTGRDSQGSDCDDSGKELGMLVEPPDARQSPDTFSLMMAKSEHNPSTSGCSSDQSSKVDTHKELIKTLKELKVHLPADKKAKGKASTLATLKYALRSVKQVKANEEYYQLLMSSEGHPCGADVPSYTVEEMESVTSEHIVKNADMFAVAVSLVSGKILYISDQVASIFHCKRDAFSDAKFVEFLAPHDVGVFHSFTSPYKLPLWSMCSGADSFTQECMEEKSFFCRVSVRKSHENEIRYHPFRMTPYLVKVRDQQGAESQLCCLLLAERVHSGYEAPRIPPEKRIFTTTHTPNCLFQDVDERAVPLLGYLPQDLIETPVLVQLHPSDRPLMLAIHKKILQSGGQPFDYSPIRFRARNGEYITLDTSWSSFINPWSRKISFIIGRHKVRVGPLNEDVFAAHPCTEEKALHPSIQELTEQIHRLLLQPVPHSGSSGYGSLGSNGSHEHLMSQTSSSDSNGHEDSRRRRAEICKNGNKTKNRSHYSHESGEQKKKSVTEMQTNPPAEKKAVPAMEKDSLGVSFPE
B5: the binding result in experiment [3] is “no binding”.

B6: PER2 1-473 (domain or fragment, UniProt O15055 1-473)
chain: MNGYAEFPPSPSNPTKEPVEPQPSQVPLQEDVDMSSGSSGHETNENCSTGRDSQGSDCDDSGKELGMLVEPPDARQSPDTFSLMMAKSEHNPSTSGCSSDQSSKVDTHKELIKTLKELKVHLPADKKAKGKASTLATLKYALRSVKQVKANEEYYQLLMSSEGHPCGADVPSYTVEEMESVTSEHIVKNADMFAVAVSLVSGKILYISDQVASIFHCKRDAFSDAKFVEFLAPHDVGVFHSFTSPYKLPLWSMCSGADSFTQECMEEKSFFCRVSVRKSHENEIRYHPFRMTPYLVKVRDQQGAESQLCCLLLAERVHSGYEAPRIPPEKRIFTTTHTPNCLFQDVDERAVPLLGYLPQDLIETPVLVQLHPSDRPLMLAIHKKILQSGGQPFDYSPIRFRARNGEYITLDTSWSSFINPWSRKISFIIGRHKVRVGPLNEDVFAAHPCTEEKALHPSIQELTEQIHRLLLQP
Turning to B6, the binding entry in experiment [3] is “no binding”.
